In article doi:10.1101/2025.04.19.649674:
Results are given in words; binding and its absence hold for the method and conditions named. In cells and extracts the contact can be indirect. Some binding calls cover weakened binding; strength is not graded here.

By UniProt entry, the sequences of proteins in these tests, tags left out.
UniProt O43353: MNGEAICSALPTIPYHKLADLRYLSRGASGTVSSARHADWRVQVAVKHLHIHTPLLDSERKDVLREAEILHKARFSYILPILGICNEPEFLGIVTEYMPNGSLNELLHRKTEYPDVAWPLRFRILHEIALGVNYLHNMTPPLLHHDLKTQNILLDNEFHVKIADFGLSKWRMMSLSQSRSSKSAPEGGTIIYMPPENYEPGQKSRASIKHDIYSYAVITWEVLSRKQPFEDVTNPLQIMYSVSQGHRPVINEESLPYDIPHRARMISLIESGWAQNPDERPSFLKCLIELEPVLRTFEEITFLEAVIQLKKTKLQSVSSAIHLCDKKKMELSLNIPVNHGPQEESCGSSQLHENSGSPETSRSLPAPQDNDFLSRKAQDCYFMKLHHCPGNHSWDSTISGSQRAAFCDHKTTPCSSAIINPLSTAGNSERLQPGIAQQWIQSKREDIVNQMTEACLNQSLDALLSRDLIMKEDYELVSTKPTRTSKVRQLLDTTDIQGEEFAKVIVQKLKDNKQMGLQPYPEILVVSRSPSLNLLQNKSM
UniProt Q8C147: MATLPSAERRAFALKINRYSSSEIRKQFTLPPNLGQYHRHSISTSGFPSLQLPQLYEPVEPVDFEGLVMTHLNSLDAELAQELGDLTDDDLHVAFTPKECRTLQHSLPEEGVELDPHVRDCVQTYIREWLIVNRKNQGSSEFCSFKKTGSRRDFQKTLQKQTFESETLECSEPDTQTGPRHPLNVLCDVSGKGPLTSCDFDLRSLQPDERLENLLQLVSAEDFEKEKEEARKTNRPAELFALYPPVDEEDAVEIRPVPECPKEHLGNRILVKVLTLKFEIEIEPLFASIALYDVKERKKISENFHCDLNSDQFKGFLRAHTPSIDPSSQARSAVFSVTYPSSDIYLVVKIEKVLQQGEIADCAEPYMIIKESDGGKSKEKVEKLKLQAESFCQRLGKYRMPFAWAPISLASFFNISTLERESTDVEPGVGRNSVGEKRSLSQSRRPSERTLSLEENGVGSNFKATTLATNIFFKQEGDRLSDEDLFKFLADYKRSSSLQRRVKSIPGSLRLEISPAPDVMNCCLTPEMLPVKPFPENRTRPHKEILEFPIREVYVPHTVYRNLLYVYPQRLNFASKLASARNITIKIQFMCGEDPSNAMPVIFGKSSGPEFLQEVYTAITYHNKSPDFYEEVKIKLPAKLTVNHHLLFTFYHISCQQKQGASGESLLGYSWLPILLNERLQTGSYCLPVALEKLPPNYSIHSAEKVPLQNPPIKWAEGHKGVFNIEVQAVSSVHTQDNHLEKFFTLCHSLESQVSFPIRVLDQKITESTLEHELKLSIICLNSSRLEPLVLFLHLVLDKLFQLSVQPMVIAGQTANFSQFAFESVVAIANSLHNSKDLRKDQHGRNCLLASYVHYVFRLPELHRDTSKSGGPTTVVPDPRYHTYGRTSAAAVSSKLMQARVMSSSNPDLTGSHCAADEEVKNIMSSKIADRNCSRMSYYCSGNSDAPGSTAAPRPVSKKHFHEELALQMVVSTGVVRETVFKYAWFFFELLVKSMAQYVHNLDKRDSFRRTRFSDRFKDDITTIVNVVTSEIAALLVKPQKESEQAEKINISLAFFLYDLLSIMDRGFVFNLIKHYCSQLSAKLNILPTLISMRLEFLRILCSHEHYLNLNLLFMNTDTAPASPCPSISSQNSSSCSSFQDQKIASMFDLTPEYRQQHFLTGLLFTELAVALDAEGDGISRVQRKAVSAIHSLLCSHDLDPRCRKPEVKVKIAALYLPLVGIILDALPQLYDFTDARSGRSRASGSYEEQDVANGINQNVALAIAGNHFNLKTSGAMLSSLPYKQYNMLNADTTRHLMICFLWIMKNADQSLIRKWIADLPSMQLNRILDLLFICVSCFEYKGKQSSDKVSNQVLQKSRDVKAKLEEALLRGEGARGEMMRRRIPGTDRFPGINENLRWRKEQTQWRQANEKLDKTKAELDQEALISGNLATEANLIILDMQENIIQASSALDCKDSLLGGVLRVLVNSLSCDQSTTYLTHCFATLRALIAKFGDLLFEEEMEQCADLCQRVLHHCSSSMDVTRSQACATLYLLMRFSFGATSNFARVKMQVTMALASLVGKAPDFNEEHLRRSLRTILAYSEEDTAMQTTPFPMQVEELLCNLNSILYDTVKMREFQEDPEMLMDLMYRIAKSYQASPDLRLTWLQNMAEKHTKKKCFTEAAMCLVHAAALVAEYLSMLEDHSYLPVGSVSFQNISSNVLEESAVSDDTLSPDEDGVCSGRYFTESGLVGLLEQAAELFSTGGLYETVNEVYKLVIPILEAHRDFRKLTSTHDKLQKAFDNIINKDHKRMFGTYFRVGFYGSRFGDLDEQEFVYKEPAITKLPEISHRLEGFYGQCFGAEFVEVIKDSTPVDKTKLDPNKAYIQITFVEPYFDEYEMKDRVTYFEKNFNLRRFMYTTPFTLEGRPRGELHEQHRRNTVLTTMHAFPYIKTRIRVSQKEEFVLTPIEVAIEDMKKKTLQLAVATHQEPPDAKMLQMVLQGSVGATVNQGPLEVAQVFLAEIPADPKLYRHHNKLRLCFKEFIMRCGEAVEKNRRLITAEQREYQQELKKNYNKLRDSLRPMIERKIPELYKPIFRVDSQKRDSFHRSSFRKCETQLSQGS
UniProt Q8NF50: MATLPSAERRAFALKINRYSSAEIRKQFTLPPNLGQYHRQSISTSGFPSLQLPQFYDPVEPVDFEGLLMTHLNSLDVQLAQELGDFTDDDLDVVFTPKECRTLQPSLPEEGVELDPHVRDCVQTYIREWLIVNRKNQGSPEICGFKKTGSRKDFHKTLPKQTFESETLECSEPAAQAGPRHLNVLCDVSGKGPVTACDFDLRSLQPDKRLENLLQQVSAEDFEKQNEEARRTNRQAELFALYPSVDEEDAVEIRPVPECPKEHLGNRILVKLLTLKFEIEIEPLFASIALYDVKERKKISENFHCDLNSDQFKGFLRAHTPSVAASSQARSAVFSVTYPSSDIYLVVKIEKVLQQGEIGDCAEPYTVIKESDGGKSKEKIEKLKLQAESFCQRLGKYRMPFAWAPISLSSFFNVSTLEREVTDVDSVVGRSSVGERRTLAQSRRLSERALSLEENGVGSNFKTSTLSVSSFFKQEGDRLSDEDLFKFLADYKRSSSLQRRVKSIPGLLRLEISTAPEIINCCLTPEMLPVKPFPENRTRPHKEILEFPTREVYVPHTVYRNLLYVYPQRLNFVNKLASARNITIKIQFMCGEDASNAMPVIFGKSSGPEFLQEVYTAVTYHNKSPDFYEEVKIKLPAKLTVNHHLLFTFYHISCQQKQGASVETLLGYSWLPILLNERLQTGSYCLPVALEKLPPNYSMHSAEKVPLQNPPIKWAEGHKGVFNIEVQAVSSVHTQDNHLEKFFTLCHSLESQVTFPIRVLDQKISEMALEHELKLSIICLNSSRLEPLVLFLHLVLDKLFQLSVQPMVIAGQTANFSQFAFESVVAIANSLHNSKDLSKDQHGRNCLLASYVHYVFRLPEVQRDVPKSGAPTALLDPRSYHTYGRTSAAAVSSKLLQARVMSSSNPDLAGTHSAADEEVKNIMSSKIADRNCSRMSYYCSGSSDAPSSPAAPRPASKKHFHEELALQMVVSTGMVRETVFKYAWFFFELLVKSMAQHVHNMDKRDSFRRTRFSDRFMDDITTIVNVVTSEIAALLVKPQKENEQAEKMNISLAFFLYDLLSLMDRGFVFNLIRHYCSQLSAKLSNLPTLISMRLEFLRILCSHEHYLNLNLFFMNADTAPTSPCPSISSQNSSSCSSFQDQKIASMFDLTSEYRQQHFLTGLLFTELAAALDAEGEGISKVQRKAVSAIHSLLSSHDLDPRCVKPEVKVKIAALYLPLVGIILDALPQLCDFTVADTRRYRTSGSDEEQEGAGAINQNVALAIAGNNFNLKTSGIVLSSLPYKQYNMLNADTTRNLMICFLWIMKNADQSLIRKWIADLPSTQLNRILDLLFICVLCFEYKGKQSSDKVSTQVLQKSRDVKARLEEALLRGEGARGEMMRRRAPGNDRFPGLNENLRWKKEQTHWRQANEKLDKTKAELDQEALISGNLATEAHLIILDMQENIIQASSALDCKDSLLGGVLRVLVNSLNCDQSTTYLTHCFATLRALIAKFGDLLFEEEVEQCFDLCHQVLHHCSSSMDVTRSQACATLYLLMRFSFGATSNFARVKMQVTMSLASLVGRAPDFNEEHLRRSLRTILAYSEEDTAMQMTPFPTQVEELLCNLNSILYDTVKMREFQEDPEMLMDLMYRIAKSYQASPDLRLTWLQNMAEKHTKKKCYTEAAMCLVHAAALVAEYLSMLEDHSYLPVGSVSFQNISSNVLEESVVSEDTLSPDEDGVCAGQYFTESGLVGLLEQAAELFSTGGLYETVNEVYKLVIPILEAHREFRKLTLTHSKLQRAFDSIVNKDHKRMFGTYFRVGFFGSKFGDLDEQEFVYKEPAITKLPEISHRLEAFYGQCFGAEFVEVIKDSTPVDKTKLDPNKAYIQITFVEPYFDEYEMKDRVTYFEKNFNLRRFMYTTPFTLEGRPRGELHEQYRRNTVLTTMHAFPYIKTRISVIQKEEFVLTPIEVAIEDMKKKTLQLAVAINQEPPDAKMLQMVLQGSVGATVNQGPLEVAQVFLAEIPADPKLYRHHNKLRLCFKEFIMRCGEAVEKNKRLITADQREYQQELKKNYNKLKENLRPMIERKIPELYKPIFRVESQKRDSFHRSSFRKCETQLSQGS
UniProt P60766: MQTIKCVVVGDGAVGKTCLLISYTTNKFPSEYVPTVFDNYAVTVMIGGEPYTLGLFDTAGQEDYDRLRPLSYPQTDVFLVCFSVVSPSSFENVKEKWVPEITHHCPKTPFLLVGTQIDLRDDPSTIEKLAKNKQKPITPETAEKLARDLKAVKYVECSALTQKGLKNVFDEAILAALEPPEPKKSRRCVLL
UniProt P60953: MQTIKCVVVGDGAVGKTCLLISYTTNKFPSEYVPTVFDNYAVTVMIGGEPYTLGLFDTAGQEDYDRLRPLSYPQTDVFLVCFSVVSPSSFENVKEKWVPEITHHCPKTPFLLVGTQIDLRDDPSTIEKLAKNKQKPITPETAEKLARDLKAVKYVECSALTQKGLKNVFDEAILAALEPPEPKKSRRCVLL

What was measured:
Experiment in all cases: co-IP
[1] = biological target: phosphorylated RIP2 (Ser 176), receptor-interacting protein 2 (human (endogenous in human platelets)) (UniProt O43353)
[2] = biological target: DOCK8 (mouse) (mouse (endogenous in mouse platelets)) (UniProt Q8C147)
[3] = biological target: DOCK8 (dedicator of cytogenesis protein 8) (human (endogenous in human platelets)) (UniProt Q8NF50)

DOCK8 (dedicator of cytogenesis protein 8) (from UniProt Q8NF50 1-2099)
binding [1]: binds

Cdc42 (mouse) (from UniProt P60766 1-191)
binding [2]: binds

Cdc42 (cell division cycle 42) (from UniProt P60953 1-191)
binding [3]: binds
